The list shows a part of the results.
Tests used:
Experiment in all cases: log2 fold change, soluble protein after heating vs DMSO (PISA); higher = thermal stabilisation; K562 lysate, 10 uM; active = over 0.2 and 3.5 SD of the protein, either way, in both replicates (recomputed)
[1] = compound: C1=CC=C(C=C1)[C@H](COC2=CC3=C(C=C2)NC(=O)N3)NC(=O)C4=CC=CN(C4=O)CC5=CC(=C(C=C5)F)F
Procedure, shortened: (§1)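 Log-two fold change in thermal stability relative to solvent controls is reported from duplicates. For each sample, crude K562 extract from dounce-homogenised pellets in PBS pH 7.4 with 1 mM MgCl2, at 1 mg/mL protein, was treated with 10 μM compound for 30 min. Aliquots heated for 3 min across 48°C-58°C were pooled, brought to 0.5% NP-40 at 4°C and cleared at 21,000xg for 90 min. The supernatant was quantified by TMTpro 16plex LC-MS/MS with channel sums equalised.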

Sequences of proteins named here, by UniProt entry; tags and fusion partners are left off. A change or cut given only in a name is not applied to a line headed by its entry.
UniProt Q96P16: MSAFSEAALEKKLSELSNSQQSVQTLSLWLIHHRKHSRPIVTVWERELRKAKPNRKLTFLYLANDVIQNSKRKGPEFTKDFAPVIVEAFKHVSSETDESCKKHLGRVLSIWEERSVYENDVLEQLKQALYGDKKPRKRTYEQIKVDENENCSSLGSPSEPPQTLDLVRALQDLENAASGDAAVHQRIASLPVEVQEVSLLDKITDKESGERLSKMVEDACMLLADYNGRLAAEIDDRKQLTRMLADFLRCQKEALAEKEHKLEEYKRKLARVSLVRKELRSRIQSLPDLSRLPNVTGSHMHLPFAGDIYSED
UniProt A6ZKI3: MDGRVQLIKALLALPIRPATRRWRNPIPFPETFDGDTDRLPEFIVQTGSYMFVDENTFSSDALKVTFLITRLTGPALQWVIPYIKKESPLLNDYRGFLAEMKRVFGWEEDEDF
UniProt P29034: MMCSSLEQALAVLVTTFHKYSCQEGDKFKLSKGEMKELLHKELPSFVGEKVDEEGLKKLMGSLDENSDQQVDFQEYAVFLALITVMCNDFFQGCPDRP
UniProt P60903, whole entry, looked up: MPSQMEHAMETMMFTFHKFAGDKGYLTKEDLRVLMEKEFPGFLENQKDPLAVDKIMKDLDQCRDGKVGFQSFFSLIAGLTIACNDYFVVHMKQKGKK
UniProt Q96FQ6: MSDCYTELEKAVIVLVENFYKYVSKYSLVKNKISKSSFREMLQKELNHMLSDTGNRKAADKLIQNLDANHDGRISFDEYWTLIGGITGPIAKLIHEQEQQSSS
UniProt P21817: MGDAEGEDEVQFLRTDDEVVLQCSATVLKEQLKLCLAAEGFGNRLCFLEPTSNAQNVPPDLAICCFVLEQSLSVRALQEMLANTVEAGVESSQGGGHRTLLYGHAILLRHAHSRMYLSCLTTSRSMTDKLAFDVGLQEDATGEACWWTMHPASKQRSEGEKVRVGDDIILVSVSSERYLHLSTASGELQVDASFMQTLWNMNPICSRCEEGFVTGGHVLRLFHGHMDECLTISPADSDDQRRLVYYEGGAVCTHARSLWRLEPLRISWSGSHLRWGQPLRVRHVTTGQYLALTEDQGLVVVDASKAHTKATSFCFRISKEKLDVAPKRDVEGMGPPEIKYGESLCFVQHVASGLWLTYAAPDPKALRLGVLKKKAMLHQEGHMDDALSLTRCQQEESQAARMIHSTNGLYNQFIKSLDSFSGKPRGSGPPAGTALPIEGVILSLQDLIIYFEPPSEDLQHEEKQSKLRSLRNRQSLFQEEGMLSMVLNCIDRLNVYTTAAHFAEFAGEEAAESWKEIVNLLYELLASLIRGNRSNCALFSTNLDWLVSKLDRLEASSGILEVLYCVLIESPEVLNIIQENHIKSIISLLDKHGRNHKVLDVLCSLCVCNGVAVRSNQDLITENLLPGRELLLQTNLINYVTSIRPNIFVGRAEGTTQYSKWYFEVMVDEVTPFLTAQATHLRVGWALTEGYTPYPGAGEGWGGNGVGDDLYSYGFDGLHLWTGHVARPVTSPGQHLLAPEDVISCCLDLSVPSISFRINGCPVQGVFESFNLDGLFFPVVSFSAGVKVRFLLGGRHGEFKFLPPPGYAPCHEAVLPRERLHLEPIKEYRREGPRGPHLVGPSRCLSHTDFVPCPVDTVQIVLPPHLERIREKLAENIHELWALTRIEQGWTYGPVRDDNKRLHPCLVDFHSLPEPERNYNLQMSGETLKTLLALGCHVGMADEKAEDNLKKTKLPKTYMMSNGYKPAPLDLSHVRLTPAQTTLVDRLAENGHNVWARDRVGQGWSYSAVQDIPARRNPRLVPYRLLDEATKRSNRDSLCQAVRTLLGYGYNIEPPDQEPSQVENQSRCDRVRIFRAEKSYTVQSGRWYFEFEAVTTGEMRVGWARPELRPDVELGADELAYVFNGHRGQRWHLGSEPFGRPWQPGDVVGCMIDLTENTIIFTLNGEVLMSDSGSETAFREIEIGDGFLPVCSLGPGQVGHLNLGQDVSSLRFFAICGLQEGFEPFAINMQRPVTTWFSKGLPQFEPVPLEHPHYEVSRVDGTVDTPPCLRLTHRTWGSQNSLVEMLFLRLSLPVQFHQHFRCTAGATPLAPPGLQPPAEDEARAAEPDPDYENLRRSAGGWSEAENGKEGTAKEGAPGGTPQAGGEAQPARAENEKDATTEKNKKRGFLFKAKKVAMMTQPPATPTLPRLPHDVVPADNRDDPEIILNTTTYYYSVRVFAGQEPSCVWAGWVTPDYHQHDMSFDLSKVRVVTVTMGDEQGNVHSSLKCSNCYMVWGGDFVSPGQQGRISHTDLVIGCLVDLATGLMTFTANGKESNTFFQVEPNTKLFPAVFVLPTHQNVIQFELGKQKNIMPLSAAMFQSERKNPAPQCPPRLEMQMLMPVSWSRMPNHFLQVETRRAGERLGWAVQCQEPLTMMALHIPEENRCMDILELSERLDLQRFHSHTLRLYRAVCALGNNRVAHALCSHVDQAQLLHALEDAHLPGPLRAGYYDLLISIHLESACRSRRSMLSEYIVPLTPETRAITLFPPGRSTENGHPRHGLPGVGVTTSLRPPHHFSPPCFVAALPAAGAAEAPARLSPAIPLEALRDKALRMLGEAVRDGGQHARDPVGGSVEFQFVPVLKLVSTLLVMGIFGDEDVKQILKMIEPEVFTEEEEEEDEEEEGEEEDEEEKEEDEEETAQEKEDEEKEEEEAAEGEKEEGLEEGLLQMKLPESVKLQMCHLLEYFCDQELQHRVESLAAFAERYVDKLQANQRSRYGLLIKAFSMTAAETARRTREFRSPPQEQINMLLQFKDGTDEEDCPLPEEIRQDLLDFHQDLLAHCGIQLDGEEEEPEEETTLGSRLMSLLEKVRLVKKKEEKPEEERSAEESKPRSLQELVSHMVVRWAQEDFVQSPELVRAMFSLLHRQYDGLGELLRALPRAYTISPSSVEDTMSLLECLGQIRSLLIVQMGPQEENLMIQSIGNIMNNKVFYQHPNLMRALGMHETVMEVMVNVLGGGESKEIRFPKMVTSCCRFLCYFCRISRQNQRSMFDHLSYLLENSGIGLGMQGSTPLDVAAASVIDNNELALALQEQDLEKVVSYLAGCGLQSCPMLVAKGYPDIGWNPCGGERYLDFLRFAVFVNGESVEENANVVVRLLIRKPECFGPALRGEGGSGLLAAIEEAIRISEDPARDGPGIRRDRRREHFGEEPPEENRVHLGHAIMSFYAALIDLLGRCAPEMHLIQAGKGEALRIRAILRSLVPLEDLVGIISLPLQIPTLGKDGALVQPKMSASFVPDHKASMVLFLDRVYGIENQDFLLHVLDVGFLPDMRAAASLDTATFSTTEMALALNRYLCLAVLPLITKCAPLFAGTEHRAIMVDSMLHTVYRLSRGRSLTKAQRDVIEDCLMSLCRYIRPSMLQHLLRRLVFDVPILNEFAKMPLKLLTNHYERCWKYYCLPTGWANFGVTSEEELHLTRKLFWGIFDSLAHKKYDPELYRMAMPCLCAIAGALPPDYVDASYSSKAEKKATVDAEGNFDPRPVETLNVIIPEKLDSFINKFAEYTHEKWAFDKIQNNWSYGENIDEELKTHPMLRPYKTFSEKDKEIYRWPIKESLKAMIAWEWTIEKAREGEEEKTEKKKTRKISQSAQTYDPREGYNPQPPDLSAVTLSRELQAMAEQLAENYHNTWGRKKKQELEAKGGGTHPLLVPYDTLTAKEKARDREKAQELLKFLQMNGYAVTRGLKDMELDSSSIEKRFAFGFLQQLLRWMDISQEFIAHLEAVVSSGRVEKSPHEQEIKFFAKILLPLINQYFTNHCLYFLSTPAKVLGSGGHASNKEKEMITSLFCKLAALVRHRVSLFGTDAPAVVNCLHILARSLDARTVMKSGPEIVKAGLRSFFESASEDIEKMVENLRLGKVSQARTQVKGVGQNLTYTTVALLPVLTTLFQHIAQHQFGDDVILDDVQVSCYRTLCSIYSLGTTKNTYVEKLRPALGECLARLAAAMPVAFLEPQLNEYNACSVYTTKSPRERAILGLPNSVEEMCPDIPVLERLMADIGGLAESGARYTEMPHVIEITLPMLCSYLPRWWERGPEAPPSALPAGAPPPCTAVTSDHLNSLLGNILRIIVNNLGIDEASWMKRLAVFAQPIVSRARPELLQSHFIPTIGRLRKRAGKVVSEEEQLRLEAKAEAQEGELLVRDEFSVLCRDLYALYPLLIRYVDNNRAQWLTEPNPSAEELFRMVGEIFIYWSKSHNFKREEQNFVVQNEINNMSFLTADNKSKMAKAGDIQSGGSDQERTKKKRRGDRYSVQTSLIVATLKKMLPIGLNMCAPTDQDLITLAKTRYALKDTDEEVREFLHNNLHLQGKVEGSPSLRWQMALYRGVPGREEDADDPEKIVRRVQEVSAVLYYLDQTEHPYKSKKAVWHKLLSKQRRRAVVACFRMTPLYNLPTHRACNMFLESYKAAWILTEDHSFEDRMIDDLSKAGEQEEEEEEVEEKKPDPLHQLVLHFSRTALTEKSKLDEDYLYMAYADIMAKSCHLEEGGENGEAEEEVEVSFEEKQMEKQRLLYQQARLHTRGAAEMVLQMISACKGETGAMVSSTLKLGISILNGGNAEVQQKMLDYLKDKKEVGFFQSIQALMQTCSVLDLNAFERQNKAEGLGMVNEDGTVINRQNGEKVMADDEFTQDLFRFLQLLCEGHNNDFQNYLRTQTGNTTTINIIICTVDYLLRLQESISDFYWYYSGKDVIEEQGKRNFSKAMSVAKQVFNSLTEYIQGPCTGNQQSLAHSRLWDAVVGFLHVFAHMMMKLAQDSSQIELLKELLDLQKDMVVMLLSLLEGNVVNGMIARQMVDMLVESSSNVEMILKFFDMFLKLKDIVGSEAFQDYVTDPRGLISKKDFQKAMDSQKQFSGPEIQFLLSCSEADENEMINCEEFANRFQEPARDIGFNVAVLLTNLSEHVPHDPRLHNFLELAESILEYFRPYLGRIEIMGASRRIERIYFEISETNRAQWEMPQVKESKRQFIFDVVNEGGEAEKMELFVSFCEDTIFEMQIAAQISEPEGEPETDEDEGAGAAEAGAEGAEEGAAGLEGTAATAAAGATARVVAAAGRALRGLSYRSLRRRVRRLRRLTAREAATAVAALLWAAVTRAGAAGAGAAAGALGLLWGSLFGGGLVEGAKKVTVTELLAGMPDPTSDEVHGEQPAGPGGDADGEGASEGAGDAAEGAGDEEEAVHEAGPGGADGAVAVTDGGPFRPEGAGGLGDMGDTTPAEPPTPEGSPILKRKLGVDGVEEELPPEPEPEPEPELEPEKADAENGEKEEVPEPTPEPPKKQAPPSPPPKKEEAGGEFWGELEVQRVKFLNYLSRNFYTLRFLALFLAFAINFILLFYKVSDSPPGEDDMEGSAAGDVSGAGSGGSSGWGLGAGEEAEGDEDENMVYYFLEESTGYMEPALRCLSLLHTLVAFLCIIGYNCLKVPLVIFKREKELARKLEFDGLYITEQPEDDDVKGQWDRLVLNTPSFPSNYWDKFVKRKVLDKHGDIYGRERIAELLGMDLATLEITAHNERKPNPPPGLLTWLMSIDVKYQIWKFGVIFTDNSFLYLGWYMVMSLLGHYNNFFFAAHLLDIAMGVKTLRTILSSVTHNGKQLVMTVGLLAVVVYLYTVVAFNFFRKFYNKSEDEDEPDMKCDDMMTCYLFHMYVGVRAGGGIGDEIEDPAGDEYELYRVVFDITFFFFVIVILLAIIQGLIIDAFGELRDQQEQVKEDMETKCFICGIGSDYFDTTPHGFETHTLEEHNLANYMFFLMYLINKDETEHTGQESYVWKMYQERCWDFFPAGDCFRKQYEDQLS
UniProt Q9UJJ7: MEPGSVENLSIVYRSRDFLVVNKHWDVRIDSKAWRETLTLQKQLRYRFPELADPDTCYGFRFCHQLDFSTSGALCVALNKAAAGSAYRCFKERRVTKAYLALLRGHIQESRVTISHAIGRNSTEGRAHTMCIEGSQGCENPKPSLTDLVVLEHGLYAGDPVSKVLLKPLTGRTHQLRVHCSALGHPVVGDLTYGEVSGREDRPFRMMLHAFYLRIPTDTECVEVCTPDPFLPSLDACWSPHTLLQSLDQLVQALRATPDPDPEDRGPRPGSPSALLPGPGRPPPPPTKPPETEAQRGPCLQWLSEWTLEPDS
UniProt P19793: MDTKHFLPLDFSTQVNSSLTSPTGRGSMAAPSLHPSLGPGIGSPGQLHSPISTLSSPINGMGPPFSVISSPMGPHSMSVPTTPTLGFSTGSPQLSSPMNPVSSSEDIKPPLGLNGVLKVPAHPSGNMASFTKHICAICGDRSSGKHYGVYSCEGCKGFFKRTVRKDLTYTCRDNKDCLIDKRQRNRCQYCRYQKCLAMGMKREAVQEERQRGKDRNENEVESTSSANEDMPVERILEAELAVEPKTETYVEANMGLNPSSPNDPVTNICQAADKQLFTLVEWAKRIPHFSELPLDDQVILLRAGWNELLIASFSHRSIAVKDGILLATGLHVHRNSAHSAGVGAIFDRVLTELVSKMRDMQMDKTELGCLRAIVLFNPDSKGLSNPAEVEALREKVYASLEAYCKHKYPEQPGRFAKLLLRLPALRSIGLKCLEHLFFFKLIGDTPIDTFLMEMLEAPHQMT

[2] = compound: CC1=C(SC2=C1C(=N[C@H](C3=NN=C(N32)C)CC(=O)N)C4=CC=C(C=C4)Cl)C
Procedure, shortened: as §1

[3] = compound: CC1=C2C(=CC=C1)N=C(N(C2=O)C3=CC=CC=C3C)CN4C=NC5=C(N=CN=C54)N
Procedure, shortened: as §1

[4] = compound: Cc1sc2c(c1C)C(c1ccc(Cl)cc1)=N[C@@H](CC(=O)OC(C)(C)C)c1nnc(C)n1-2
Procedure, shortened: as §1

[5] = compound: c1ccc([C@@H]2C[C@H]2NC2CCNCC2)cc1
Procedure, shortened: as §1

Measured: log2 fold change

RPS27 (UniProt P42677)
inactive: [1] 0.011 | [2] 0.049 | [3] -0.043 | [4] 0.025 | [5] 0.096

RPS6KA1 (UniProt Q15418)
inactive: [1] -0.073 | [2] -0.064 | [3] -0.045 | [4] 0.015 | [5] -0.047

RPS7 (UniProt P62081)
inactive: [1] 0.003 | [2] -0.012 | [3] -0.009 | [4] 0.007 | [5] 0.071

RPS8 (UniProt P62241)
inactive: [1] 0.025 | [2] 0.014 | [3] 0.01 | [4] 0.003 | [5] 0.02

RPRD1A (UniProt Q96P16)
inactive: [1] 0.027 | [2] 0.064 | [3] 0.028 | [4] -0.084 | [5] 0.012

RPS23 (UniProt P62266)
inactive: [1] 0.019 | [2] 0.038 | [3] -0.01 | [4] 0.053 | [5] 0.057

RRAGA (UniProt Q7L523)
inactive: [1] 0.024 | [2] -0.039 | [3] 0.01 | [4] -0.045 | [5] -0.036

RSRP1 (UniProt Q9BUV0)
inactive: [4] -0.238

RUFY3 isoform 2 (UniProt Q7L099)
inactive: [1] -0.008 | [2] 0.026 | [4] 0.007 | [5] 0.221

RTL8C (UniProt A6ZKI3)
inactive: [3] 0.068 | [4] -0.108

RPS15 (UniProt P62841)
inactive: [1] 0.026 | [2] 0.037 | [3] -0.004 | [4] -0.017 | [5] -0.07

RTEL1 isoform 2 (UniProt Q9NZ71)
inactive: [4] 0.097

RTL8A (UniProt Q9BWD3)
inactive: [3] 0.215

RPL4 (UniProt P36578)
inactive: [1] 0.043 | [2] 0.009 | [3] 0.016 | [4] 0.018 | [5] 0.029

S100A6 (UniProt P06703)
inactive: [3] -0.084 | [4] -0.1 | [5] 0.104

RPS9 (UniProt P46781)
inactive: [1] 0.003 | [2] 0.038 | [3] -0.007 | [4] 0.1 | [5] 0.124

RPS6KB2 (UniProt Q9UBS0)
inactive: [4] -0.008 | [5] 0.226

S100A2 (UniProt P29034)
inactive: [1] 0 | [2] 0.037 | [3] 0.264 | [5] -0.45

RPS19 (UniProt M0R2L9)
inactive: [3] 0.377 | [4] 0.27

RSL24D1 (UniProt Q9UHA3)
inactive: [4] -0.062 | [5] 0.056

RRAGB (UniProt Q5VZM2)
inactive: [1] 0.083 | [2] 0.003 | [3] -0.037 | [4] -0.062 | [5] 0.013

RTN4, A0A0U1RQR6
inactive: [5] -0.051

RUFY2 isoform 1 (UniProt Q8WXA3)
inactive: [1] -0.28 | [2] -0.106 | [3] -0.087 | [5] -0.111

RREB1 isoform 2 (UniProt Q92766)
inactive: [1] 0.008 | [2] 0.05 | [3] 0.084 | [4] 0.043 | [5] 0.058

RPP30 (UniProt Q5VU11)
inactive: [3] 0.022

RPS3 (UniProt E9PJN9)
inactive: [3] 0.214

S100A10 (UniProt P60903)
inactive: [1] -0.048 | [2] 0.001 | [4] -0.233

S100A14 (UniProt Q9HCY8)
inactive: [1] -0.209 | [2] -0.086 | [4] 0

S100A4 (UniProt P26447)
inactive: [3] -0.063 | [4] -0.103 | [5] 0.11

RPUSD3 (UniProt Q6P087)
inactive: [3] 0.058 | [4] 0.012 | [5] 0.035

S100A16 (UniProt Q96FQ6)
inactive: [1] -0.484 | [2] 0.131 | [5] -0.038

RUNDC1 (UniProt Q96C34)
inactive: [1] 0.255 | [2] 0.177 | [4] -0.055 | [5] -0.236

RPS26 (UniProt P62854)
inactive: [1] 0.047 | [2] -0.011 | [3] -0.09 | [4] -0.032 | [5] -0.001

RYR1 (UniProt P21817)
inactive: [1] -0.011 | [2] -0.028 | [4] -0.093 | [5] -0.055

RPS6KA5 (UniProt O75582)
inactive: [3] -0.084 | [4] -0.024 | [5] -0.017

S100A1 (UniProt P23297)
inactive: [3] -0.02 | [4] -0.065 | [5] -0.056

RXYLT1 (UniProt Q9Y2B1)
inactive: [4] -0.23

RSC1A1 (UniProt Q92681)
inactive: [1] 0.059 | [2] -0.008 | [4] -0.052

RWDD3 (UniProt Q9Y3V2)
inactive: [4] 0.084 | [5] 0.016

S100A12 (UniProt P80511)
inactive: [3] 0.198

RPUSD1 (UniProt Q9UJJ7)
inactive: [3] 0.024 | [4] -0.061 | [5] -0.152

RPSA (UniProt F8WD59)
inactive: [4] 0.303 | [5] 0.227

RPL7L1 (UniProt Q6DKI1)
inactive: [1] 0.001 | [2] 0.044 | [3] 0 | [4] 0.047 | [5] 0.017

RXRA (UniProt P19793)
inactive: [4] 0.167 | [5] -0.149

RRP36 (UniProt Q96EU6)
inactive: [3] -0.151 | [4] 0.11

3 records drawn at random from those above, as already listed:
RPRD1A (UniProt Q96P16)
inactive: [1] 0.027 | [2] 0.064 | [3] 0.028 | [4] -0.084 | [5] 0.012

S100A14 (UniProt Q9HCY8)
inactive: [1] -0.209 | [2] -0.086 | [4] 0

S100A6 (UniProt P06703)
inactive: [3] -0.084 | [4] -0.1 | [5] 0.104

Further records

RPS24 isoform 4 (UniProt P62847)
inactive: [1] 0.04 | [2] -0.005 | [3] 0.009 | [4] -0.043 | [5] 0.021

RPP14 (UniProt O95059)
inactive: [1] 0.044 | [2] 0.015 | [3] -0.095 | [5] -0.093

Source: the supplement of paper PMC10849652
